# Data published in the supplement of paper PMC4604168 (melanoma cell lines).
# The list shows a part of the results. Repeats are few or missing, and single values can be far off.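 Imaging used 1,536-well plates; nuclei positive for cleaved PARP by antibody were divided by total DNA-stained nuclei to yield the apoptosis fraction. Doses for screening kept most cells viable, and cell lines differ markedly in resting and induced cleaved-PARP levels.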
# System: WM451Lu
# Assay: cleaved PARP positive nuclei fraction relative to DMSO control; melanoma cells; higher = more apoptosis
# Settings: library dose: low library concentration; 72 h
row,Compound,cleaved PARP positive nuclei fraction
1,"CC(=O)c1c(C)c2cnc(Nc3ccc(N4CCNCC4)cn3)nc2n(C2CCCC2)c1=O [palbociclib] + CCc1ccc(CCOc2ccc(CC3SC(=O)NC3=O)cc2)nc1 [pioglitazone] (first compound 0.04 µM, partner dose 2 µM)",197%
2,"Clc1ccc(Nc2nnc(Cc3ccncc3)c3ccccc23)cc1 [vatalanib] + Cn1nnc2c(C(N)=O)ncn2c1=O [temozolomide] (first compound 2 µM, partner dose 2 µM)",64.5%
3,"C#Cc1cccc(Nc2ncnc3cc(OCCOC)c(OCCOC)cc23)c1 [erlotinib] + OCCn1cc(-c2cnc3nnn(Cc4ccc5ncccc5c4)c3n2)cn1 [PF04217903] (first compound 0.8 µM, partner dose 1 µM)",102%
4,"Cn1cncc1[C@@](N)(c1ccc(Cl)cc1)c1ccc2c(c1)c(-c1cccc(Cl)c1)cc(=O)n2C [tipifarnib] + Oc1cc(-c2nc(-c3ccccc3)[nH]c2-c2ccncc2)ccc1Cl [L779450] (first compound 0.01 µM, partner dose 0.2 µM)",55.7%
5,"Cn1c(Nc2ccc(C(F)(F)F)cc2)nc2cc(Oc3ccnc(-c4ncc(C(F)(F)F)[nH]4)c3)ccc21 + N#Cc1c(O)c2c(-c3ccc(-c4ccccc4O)cc3)csc2[nH]c1=O [A769662] (first compound 0.08 µM, partner dose 2 µM)",201%
6,"O=C(CCCCCCC(=O)Nc1ccccc1)NO [vorinostat] + O=S(=O)(c1ccccc1)N(CC(F)(F)F)c1ccc(C(O)(C(F)(F)F)C(F)(F)F)cc1 [T0901317] (first compound 0.08 µM, partner dose 1.4 µM)",112%
